Reference: patent US20200017752A1, “Use Of A Composition Containing At Least One Biodegradable Sugar-Amide-Compound In Combination With At Least One Sulfur-Based Synergist For Corrosion Inhibition Of A Metallic Equipment In Oilfield Applications” (Clariant International Ltd., priority 2016, published 2020)

Legend:
[1] = HPHT rotating cage autoclave (RCA) weight loss corrosion test; details: 700 rpm, 150 ppm total inhibitor, brine, CO2; for Average Corrosion Rate At 66° C.: 34.5 bar, 3 days; for Average Corrosion Rate At 149° C.: 27.6 bar, 5 days
[2] = Corrosion test, rotating cylinder electrode (RCE), LPR; details: 150° F., 2000 RPM, synthetic brine, 100% CO2, 12 ppm total inhibitor
Excerpt: In order to evaluate the corrosion inhibition efficacy of the formulations, two different test methods were employed: rotating cylinder electrode (RCE) tests and high pressure, high temperature (HPHT) autoclave weight loss tests. For all testing, the following standard brine composition was used (as outlined in table 3):
A gas composition of 100% CO2 was used throughout testing.
The metallurgy of the coupons tested was C1018 carbon steel for RCE testing and HPHT autoclave testing. Coupons were polished mechanically using 320 grit silicon-carbide (SiC) paper, 400 grit SiC paper, then 600 grit SIC paper and rinsed with water then acetone prior to testing.
The rotating cylinder electrode (RCE) tests were conducted in Pyrex™ glass reaction kettles that were heated to 150° F. The testing solution was comprised of 900 mL of brine. The electrode rotation rate was set at 2000 RPM, which generated a wall shear stress of 7.0 Pa. Linear polarization resistance (LPR) measurements were made with a Gamry electrochemical measurement system. The working electrode was made of a 1018 carbon steel (CS) cylinder with a surface area of 3.16 cm^2. A Hastelloy C276 electrode was used as a pseudo-reference, and a titanium rod was used as the counter electrode. […] The baseline corrosion rate corresponds to the blank corrosion value. Upon completion of the tests, the electrodes were cleaned in an inhibited acid bath according to ASTM G1 C.3.5, and weighed to 0.1 mg.

| SMILES | Average Corrosion Rate At 66° C. [1] [mpy] | Average Corrosion Rate At 149° C. [1] [mpy] | Corrosion Rate 2 hr after Cl dose [2] [mpy] | Corrosion Rate Final 3 hr [2] [mpy] |
| --- | --- | --- | --- | --- |
| N.N.O=S(O)(O)=S [ATS, Ammoniumthiosulfate] | 4.89 | 34.87 | 38.7 | 13.9 |
| CCCCCCCC/C=C\CCCCCCCCN[C@@H](CCSC)C(=O)O [OMet, N-Oleyl-Methionine] | 7.89 | 44.45 | 39.6 | 12.9 |
| CC(C)CCC(C)CCC(C)CC(=O)N(C)CC(O)C(O)C(O)C(O)CO (stereo not shown) [Glucamide #2] | 4.23 | 35.66 | 34.6 | 10.2 |
| CCCCCCCCCC(=O)N(C)CC(O)C(O)C(O)C(O)CO (stereo not shown) [Glucamide #1] | 6.25 | 41.90 | 44.2 | 11.6 |
| CC(C)CCC(C)CCC(C)CC(=O)N(C)CC1OC(CO)C(O)C1O (stereo not shown) [Glucamide #4] | 3.62 | 29.73 | 41.6 | 9.8 |
| N.O=C(O)CS [ATG, Ammonium Thioglycolate] | 6.32 | 40.61 | 47.6 | 14.5 |
| CCCCCCCCCC(=O)N(C)CC1OC(CO)C(O)C1O (stereo not shown) [Glucamide #3] | 4.81 | 36.10 | 44.8 | 10.9 |
| CCCCCCCC/C=C\CCCCCCCC(=O)N(C)CC1OC(CO)C(O)C1O (stereo not shown) [Glucamide #6] | 3.92 | 35.79 | 42.4 | 10.6 |
| OCCS [MET, Mercaptoethanol] | 5.21 | 38.12 | 45.6 | 15.4 |
| CCCCCCCC/C=C\CCCCCCCC(=O)N(C)CC(O)C(O)C(O)C(O)CO (stereo not shown) [Glucamide #5] | 3.87 | 32.76 | 38.6 | 9.6 |
